According to patent publication US5212157A (Bio-Mega, Inc., priority 1989, dated 1993):

Assay: general procedure: solution-phase peptide synthesis; BOP
Conditions: coupling step, HCl

Compared with Boc-Ala-ACHPA-Leu-Phe-NH2, Boc-Phe.psi.[CH2 NH]Leu-Leu-Phe-NH2 is lower in step yield: 79% for the first, 56% for the second.

First: Boc-THIQ-Ala-ACHPA-Leu-Phe-NH2
Second: Boc-THIQ-Val-ACHPA-Ala-Phe-NH2
The step yield of the first is higher: 77% for the first, 38% for the second.

Same assay, conditions: late stage modification step, HCl

First: THIQ-Val-ACHPA-Ala-Phe-NH2.HCl
Second: THIQ-Ala-ACHPA-Leu-Phe-NH2.HCl
The step yield of the first is lower: 51% for the first, 93% for the second.

Going from THIQ-Val-ACHPA-Asp-Phe-NH2.HCl to Boc-THIQ-Ala-ACHPA-Leu-Phe-OH, the step yield rises from 49% to 66%.
